Results reported in publication PMC7819943, “Rice protein-binding microarrays: a tool to detect cis-acting elements near promoter regions in rice”.
The list shows a part of the results.

The chains behind the UniProt entries cited, without tags or fusion partners.
UniProt Q0JBA9, entry or part of it: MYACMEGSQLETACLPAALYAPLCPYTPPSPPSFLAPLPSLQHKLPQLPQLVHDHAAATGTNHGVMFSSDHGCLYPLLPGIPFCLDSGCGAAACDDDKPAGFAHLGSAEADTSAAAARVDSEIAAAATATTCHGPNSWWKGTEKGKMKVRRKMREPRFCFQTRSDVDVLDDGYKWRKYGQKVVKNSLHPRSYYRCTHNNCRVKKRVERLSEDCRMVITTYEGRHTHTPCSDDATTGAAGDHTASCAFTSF

target: OsWRKY34 (Oryza sativa, UniProt Q0JBA9 1-250); assay: protein-binding microarray (RPBM); PBS, 2% BSA, 51.3 ng/ul salmon testes DNA, 50 uM zinc acetate, 200 nM TF, 25 C, 1 h; high values mean tight binding; settings: protein: recombinant; tags: N-terminal polyhistidine and DsRed monomer fusion (pET32a); label: CyDye5-dUTP incorporated in the synthesized complementary strand; 3' TTTTT single-stranded linker to array surface; dsDNA, one strand shown
How it was run: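 Transcription factors were made in E. coli BL21-CodonPlus as N-terminal fusions to a polyhistidine tag and DsRed, then purified on Ni–NTA. After primer extension with Cy5-dUTP and blocking with 2% BSA, a custom Agilent array was exposed for 1 h at 25 °C to 200 nM protein in PBS, 2% BSA, salmon testes DNA and 50 µM zinc acetate. Washed arrays were scanned on an Axon 4000B, and the binding signal is per-feature fluorescence intensity in arbitrary units.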

Q: How did the binding signal turn out when “CGCCTATATATTTGAAACTATACACACATCGTCGTCTATGCGGAGTCACCTAGTGCAG” was run?
A: 8610 fluorescence intensity (a.u.)

Q: For “ATCACAGGTATGCTCCCATACATCTTTTGCATTTGTACTACGGAGTCACCTAGTGCAG”, which binding signal is on record?
A: 9210 fluorescence intensity (a.u.)

Q: “CGTACATTCCTCAGCCATGTATTCTTACGCTCCGGCCCTCCGGAGTCACCTAGTGCAG” was tested. Which binding signal did it give?
A: 8060 fluorescence intensity (a.u.)

Q: How did the binding signal turn out when “GACCATGATTAAATGATGTCGATGTTTTCACTTCTTTTTCCGGAGTCACCTAGTGCAG” was run?
A: 8280 fluorescence intensity (a.u.)

Q: Which binding signal does the source give for “CTCTCGTCCTCGTCCGCTTCCAGATTCAGATCCACCCATCCGGAGTCACCTAGTGCAG” here?
A: 9630 fluorescence intensity (a.u.)

Q: Which binding signal does the source give for “AGTAGGAGGCTGGGTGGTTGTGGGTAAGATGAAAAGAAATCGGAGTCACCTAGTGCAG” here?
A: 10200 fluorescence intensity (a.u.)

Q: Which binding signal does the source give for “ACCCACAGGCTAGTTCCACATCAGAACCAACCGCTTCCCTCGGAGTCACCTAGTGCAG” here?
A: 9790 fluorescence intensity (a.u.)

Q: How did the binding signal turn out when “TGCCTAATTGATTAGTACTAGATACTTTCTGCATCACTACCGGAGTCACCTAGTGCAG” was run?
A: 9390 fluorescence intensity (a.u.)

Q: For “CCATGTTCCTCACCTCTGTACCCCACTAATCACCCATCTTCGGAGTCACCTAGTGCAG”, which binding signal is on record?
A: 8500 fluorescence intensity (a.u.)

Q: With “ACGCTTGTTAGCTGTTCTGGTGAGTGACATGTAGCCCTCTCGGAGTCACCTAGTGCAG” as the sequence, how does the binding signal read?
A: 8040 fluorescence intensity (a.u.)

Q: For “CTGTTCAGATTTATTGTCCTATAATATATATACGGTTTTTCGGAGTCACCTAGTGCAG”, which binding signal is on record?
A: 8060 fluorescence intensity (a.u.)

Q: Which binding signal does the source give for “ACATCTACACTCACCGCCTCACTACGCTCGCCGTACACAACGGAGTCACCTAGTGCAG” here?
A: 9360 fluorescence intensity (a.u.)

Q: With “GCCGGCGGCGGCCGCTTCCGCCTCCATCTTCGTGGGCCTCCGGAGTCACCTAGTGCAG” as the sequence, how does the binding signal read?
A: 8780 fluorescence intensity (a.u.)

Q: With “TATGCCTATCTGAATTGGTTACTGTTCGTTTTTCCACTTACGGAGTCACCTAGTGCAG” as the sequence, how does the binding signal read?
A: 10800 fluorescence intensity (a.u.)

Q: With “GGTCAGGCACTCACTCTTCTCCGCTATCCACACCCTCTCTCGGAGTCACCTAGTGCAG” as the sequence, how does the binding signal read?
A: 8070 fluorescence intensity (a.u.)

Q: For “TTACCGTACCGTCATCTTCTTCTCCGTCTCTCTCTTTTTCCGGAGTCACCTAGTGCAG”, which binding signal is on record?
A: 9800 fluorescence intensity (a.u.)

Q: With “AAGTGACCTCTCTCTCTCTCTCTCTCTCTCTCTCTCTCTCCGGAGTCACCTAGTGCAG” as the sequence, how does the binding signal read?
A: 9940 fluorescence intensity (a.u.)

Q: For “ACTTATAAAACCGTTCACTTCACGTTCTTTGGTGTTTTTGCGGAGTCACCTAGTGCAG”, which binding signal is on record?
A: 12200 fluorescence intensity (a.u.)

Q: With “AATGACGTTAATTTTTGTTTATTTTTAGCCTTTTTAATTTCGGAGTCACCTAGTGCAG” as the sequence, how does the binding signal read?
A: 8420 fluorescence intensity (a.u.)

Q: “AATGTTATACACGTACGAGTGGGAAACACTACCTTATGTTCGGAGTCACCTAGTGCAG” was tested. Which binding signal did it give?
A: 8940 fluorescence intensity (a.u.)

Q: For “TATAGCCCACCTCAACCCCGTCTCCAACATCATCCTCGAGCGGAGTCACCTAGTGCAG”, which binding signal is on record?
A: 8400 fluorescence intensity (a.u.)

Q: “GCCAATTCGTTCGTTTCTTCTTAAGTTCCACAGAATCCCACGGAGTCACCTAGTGCAG” was tested. Which binding signal did it give?
A: 10500 fluorescence intensity (a.u.)

Q: For “ATTTGATTTATTGTTAAATATACTTTCATGTACACATATACGGAGTCACCTAGTGCAG”, which binding signal is on record?
A: 8240 fluorescence intensity (a.u.)

Q: Which binding signal does the source give for “TACACATATTACGTATTGGAGTCCGTGCTGCAGCTAGCTACGGAGTCACCTAGTGCAG” here?
A: 8130 fluorescence intensity (a.u.)

Q: For “ATTGCTATGTTATCTTCCAAGCCTTCTAAACAAGGTCCTACGGAGTCACCTAGTGCAG”, which binding signal is on record?
A: 8100 fluorescence intensity (a.u.)

Q: How did the binding signal turn out when “ACCTCTCCTACTCGTGGATTTCTTTTTGTTCCTTTCTTTCCGGAGTCACCTAGTGCAG” was run?
A: 8440 fluorescence intensity (a.u.)

Q: “CTCCAGTTCTCCACCATCACACGATCGAGCATCTCGGGGCCGGAGTCACCTAGTGCAG” was tested. Which binding signal did it give?
A: 8280 fluorescence intensity (a.u.)

Q: With “AGTGTGTCTATATCAGATCAAACAGTACCCTTGGTTTTATCGGAGTCACCTAGTGCAG” as the sequence, how does the binding signal read?
A: 8220 fluorescence intensity (a.u.)

Q: “TTATTGCTGGGTTCCTCTTGTCTCATTGTCTATGGTGGTACGGAGTCACCTAGTGCAG” was tested. Which binding signal did it give?
A: 9820 fluorescence intensity (a.u.)

Q: For “CGCCTTGCCTTTTTACCACCTCTTCACATGCACGCACGGTCGGAGTCACCTAGTGCAG”, which binding signal is on record?
A: 8070 fluorescence intensity (a.u.)

Q: “ATGCTTTCTTCTCTTTAGCTATCACCCATCCATCTATCTACGGAGTCACCTAGTGCAG” was tested. Which binding signal did it give?
A: 9430 fluorescence intensity (a.u.)

Q: With “GAGATCTTTGGGTGGTATCTCGTGCAGTAGCTGGCCTCCACGGAGTCACCTAGTGCAG” as the sequence, how does the binding signal read?
A: 9120 fluorescence intensity (a.u.)

Q: “AGACCTCGAACCATCCATCCATCTATCCACCCAACCACTCCGGAGTCACCTAGTGCAG” was tested. Which binding signal did it give?
A: 8390 fluorescence intensity (a.u.)

Q: “AAGGTGGGGTTGGAATTCCCATATCCGATTTTTGATTGTTCGGAGTCACCTAGTGCAG” was tested. Which binding signal did it give?
A: 12700 fluorescence intensity (a.u.)

Q: Which binding signal does the source give for “ATATTTATGTGCCAAATATTGTCAATTGTTCCTCTTGTTACGGAGTCACCTAGTGCAG” here?
A: 9080 fluorescence intensity (a.u.)

Q: With “CTTATATGTATCATTTGTTTTGTTGTTTTTTATTATTATACGGAGTCACCTAGTGCAG” as the sequence, how does the binding signal read?
A: 10200 fluorescence intensity (a.u.)

Q: Which binding signal does the source give for “GCATCTTGACATCTTATTTATCCAACTACGAATCATAATCCGGAGTCACCTAGTGCAG” here?
A: 8330 fluorescence intensity (a.u.)

Q: Which binding signal does the source give for “TGTTATGTATGTTTCATCTTGTATTATCCCATGTATCAGTCGGAGTCACCTAGTGCAG” here?
A: 9820 fluorescence intensity (a.u.)

Q: For “AAAATTTCCCTTTTTTTTATTTTTTCTGTGTCGCAATCTCCGGAGTCACCTAGTGCAG”, which binding signal is on record?
A: 11200 fluorescence intensity (a.u.)

Q: “CCACACTTTTCTACTCTCATGGCCCACATGTCATACACTCCGGAGTCACCTAGTGCAG” was tested. Which binding signal did it give?
A: 14300 fluorescence intensity (a.u.)

Q: For “TAGGCCCAAGATGTTTTTGATTTTGGTCAAAGTCAAAGTACGGAGTCACCTAGTGCAG”, which binding signal is on record?
A: 8330 fluorescence intensity (a.u.)

Q: “AGTGATGATAGCCCTAACATTTTAAATCGTGCTCTTTCATCGGAGTCACCTAGTGCAG” was tested. Which binding signal did it give?
A: 9570 fluorescence intensity (a.u.)
